The list shows a part of the results.
Columns and labels:
Test in all cases: log2 fold change, soluble protein after heating vs DMSO (PISA); higher = thermal stabilisation; K562 cells, 10 uM, 30 min; active = over 0.2 and 3.5 SD of the protein, either way, in both replicates (recomputed)
[1] = compound: C1=CC=C(C=C1)[C@H](COC2=CC3=C(C=C2)NC(=O)N3)NC(=O)C4=CC=CN(C4=O)CC5=CC(=C(C=C5)F)F
Procedure, shortened: (§1)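 K562 cells at 2×10^6 cells/mL were given 10 μM compound for 30 min. Aliquots then went through 3 min of heating across 48°C-58°C, were pooled, and were extracted in PBS with 0.5% NP-40 at 4°C, and the supernatant after 21,000xg for 90 min was quantified by TMTpro 16plex LC-MS/MS with channel sums equalised. Thermal stability relative to control samples, from duplicates, is given as log2 fold change.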

By UniProt entry, the sequences of proteins in these tests, tags left out. Where a name states a change or a piece, a line headed by the entry shows the natural chain unless it says otherwise.
UniProt P78356: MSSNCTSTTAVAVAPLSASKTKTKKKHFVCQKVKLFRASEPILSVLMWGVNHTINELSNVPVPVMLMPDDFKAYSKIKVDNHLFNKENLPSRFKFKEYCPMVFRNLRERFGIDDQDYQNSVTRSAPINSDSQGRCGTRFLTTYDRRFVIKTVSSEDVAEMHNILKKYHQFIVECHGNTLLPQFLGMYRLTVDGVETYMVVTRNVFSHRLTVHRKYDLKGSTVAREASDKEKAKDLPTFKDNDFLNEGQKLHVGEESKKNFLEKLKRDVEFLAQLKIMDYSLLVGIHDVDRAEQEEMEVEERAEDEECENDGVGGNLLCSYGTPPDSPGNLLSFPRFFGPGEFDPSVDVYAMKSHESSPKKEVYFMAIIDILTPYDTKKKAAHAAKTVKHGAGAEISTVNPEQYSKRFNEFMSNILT
UniProt Q93100: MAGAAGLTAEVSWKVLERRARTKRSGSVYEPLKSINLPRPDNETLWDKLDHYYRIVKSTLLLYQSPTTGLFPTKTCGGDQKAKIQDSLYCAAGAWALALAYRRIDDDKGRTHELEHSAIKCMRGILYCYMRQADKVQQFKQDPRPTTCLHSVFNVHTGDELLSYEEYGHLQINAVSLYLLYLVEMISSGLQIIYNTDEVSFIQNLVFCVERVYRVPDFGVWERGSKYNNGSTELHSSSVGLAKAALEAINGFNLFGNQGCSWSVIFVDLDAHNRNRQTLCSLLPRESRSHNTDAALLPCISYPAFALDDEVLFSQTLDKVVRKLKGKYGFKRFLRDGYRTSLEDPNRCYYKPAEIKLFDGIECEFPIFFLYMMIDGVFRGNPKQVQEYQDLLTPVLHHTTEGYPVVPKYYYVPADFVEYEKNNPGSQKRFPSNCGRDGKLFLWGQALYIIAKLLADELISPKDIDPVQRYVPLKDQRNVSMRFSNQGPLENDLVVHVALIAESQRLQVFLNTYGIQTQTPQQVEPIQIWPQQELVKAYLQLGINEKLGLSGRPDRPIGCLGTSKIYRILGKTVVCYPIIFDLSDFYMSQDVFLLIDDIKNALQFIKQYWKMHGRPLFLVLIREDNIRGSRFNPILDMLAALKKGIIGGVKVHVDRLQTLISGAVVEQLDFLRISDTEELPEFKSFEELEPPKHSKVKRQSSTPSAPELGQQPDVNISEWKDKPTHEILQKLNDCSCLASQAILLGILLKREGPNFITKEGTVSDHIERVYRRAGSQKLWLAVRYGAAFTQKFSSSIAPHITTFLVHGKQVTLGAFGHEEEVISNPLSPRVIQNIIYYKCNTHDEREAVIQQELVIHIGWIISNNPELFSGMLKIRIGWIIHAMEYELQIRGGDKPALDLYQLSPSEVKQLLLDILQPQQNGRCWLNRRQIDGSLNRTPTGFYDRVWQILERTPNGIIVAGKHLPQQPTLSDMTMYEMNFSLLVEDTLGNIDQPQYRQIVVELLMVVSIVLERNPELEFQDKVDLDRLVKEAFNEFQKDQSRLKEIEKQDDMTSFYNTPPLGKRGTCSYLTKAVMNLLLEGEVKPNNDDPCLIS
UniProt Q86T03: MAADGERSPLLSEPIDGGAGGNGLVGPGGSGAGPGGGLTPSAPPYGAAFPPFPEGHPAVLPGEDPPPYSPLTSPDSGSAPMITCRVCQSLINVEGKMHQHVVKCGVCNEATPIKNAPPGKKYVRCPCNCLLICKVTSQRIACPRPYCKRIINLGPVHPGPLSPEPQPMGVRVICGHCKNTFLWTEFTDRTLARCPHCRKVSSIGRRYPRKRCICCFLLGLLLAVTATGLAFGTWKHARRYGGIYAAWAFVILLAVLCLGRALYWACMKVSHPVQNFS
UniProt Q92643: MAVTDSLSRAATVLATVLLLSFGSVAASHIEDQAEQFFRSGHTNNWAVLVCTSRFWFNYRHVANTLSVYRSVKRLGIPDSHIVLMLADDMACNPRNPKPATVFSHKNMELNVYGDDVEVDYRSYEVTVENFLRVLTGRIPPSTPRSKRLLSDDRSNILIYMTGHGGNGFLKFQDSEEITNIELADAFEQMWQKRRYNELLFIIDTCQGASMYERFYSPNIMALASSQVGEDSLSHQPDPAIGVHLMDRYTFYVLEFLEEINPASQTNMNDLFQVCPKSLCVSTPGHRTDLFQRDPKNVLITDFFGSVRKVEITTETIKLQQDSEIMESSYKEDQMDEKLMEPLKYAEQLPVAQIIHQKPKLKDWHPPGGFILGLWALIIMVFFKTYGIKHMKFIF
UniProt O00625: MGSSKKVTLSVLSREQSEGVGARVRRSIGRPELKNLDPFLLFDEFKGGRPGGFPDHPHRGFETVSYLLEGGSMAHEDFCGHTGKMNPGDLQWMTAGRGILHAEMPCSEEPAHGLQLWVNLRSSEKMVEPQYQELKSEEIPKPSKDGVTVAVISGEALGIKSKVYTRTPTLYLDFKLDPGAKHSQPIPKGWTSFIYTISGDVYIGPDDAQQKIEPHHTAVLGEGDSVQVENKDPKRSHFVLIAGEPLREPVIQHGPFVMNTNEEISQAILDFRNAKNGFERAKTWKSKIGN
UniProt O60825: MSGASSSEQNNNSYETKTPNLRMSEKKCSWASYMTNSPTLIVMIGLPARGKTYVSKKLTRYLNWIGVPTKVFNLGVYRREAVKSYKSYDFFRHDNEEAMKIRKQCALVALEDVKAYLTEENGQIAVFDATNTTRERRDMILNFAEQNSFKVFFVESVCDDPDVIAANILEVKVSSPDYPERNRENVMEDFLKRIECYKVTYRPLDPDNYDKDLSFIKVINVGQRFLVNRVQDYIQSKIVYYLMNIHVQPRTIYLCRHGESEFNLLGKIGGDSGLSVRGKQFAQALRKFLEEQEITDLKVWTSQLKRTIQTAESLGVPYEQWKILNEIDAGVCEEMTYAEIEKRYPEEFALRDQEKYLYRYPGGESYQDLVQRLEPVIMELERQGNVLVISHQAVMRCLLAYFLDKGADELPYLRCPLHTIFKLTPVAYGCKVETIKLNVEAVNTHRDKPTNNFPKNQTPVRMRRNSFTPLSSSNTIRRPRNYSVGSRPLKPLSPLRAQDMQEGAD
UniProt Q9UHV9, whole entry, looked up: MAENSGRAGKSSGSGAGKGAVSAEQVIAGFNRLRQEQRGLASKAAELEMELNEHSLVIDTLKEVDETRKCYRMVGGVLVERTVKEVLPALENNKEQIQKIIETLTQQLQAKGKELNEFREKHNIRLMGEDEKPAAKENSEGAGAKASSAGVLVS
UniProt O75167: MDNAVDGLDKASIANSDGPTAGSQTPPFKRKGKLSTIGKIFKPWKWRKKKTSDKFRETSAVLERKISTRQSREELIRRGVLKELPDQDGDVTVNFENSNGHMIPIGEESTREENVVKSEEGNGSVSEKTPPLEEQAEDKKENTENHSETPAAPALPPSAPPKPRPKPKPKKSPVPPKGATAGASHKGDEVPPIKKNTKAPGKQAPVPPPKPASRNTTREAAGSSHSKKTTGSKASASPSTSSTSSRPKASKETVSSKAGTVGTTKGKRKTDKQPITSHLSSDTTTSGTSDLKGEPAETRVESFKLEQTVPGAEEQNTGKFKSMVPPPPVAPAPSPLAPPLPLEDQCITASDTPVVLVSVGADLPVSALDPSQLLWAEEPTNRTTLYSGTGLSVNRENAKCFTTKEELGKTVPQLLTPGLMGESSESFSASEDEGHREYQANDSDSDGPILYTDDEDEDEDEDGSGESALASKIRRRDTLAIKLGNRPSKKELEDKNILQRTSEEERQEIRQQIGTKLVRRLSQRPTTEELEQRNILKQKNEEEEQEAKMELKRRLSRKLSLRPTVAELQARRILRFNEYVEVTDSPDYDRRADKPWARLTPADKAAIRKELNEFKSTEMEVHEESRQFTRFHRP
UniProt Q96HS1, whole entry, looked up: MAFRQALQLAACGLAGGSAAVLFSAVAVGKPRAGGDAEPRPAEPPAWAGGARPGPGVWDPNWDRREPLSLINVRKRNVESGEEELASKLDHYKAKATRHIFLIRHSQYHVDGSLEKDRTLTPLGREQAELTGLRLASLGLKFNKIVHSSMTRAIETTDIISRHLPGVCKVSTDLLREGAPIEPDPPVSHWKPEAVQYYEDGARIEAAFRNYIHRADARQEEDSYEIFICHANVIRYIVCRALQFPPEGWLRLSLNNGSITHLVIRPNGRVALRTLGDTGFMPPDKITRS
UniProt O15212, whole entry, looked up: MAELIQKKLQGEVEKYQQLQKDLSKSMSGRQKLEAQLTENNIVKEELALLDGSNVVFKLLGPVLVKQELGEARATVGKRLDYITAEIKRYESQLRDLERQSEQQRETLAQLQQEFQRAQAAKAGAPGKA
UniProt Q9Y237, whole entry, looked up: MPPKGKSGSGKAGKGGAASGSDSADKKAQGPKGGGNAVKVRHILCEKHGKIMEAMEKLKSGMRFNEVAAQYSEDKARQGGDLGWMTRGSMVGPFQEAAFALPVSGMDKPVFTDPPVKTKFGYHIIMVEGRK
UniProt Q8NEB9, whole entry, looked up: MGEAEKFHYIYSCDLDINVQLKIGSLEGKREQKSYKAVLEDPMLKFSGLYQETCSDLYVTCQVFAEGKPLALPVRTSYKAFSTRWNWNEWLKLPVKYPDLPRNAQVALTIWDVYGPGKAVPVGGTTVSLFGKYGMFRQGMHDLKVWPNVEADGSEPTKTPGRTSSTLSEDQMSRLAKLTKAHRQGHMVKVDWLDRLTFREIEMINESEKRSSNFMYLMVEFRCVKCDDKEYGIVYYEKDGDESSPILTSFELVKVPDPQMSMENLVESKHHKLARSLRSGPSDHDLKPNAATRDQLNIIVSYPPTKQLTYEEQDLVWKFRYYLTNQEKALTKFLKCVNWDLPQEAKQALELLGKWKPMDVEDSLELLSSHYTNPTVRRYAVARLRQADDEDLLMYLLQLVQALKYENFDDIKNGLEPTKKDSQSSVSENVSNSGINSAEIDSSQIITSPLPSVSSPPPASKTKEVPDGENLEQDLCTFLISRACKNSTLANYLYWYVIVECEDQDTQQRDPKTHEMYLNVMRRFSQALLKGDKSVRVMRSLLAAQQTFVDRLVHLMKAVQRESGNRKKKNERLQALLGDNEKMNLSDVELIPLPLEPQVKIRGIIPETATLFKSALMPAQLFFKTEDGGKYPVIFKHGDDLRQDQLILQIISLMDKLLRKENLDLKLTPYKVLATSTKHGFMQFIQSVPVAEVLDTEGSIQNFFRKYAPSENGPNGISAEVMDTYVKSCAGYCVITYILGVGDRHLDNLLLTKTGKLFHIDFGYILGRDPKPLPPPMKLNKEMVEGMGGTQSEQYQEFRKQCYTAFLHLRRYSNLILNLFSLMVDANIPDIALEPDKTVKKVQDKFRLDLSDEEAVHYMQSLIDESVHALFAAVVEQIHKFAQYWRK
UniProt Q9NUJ7: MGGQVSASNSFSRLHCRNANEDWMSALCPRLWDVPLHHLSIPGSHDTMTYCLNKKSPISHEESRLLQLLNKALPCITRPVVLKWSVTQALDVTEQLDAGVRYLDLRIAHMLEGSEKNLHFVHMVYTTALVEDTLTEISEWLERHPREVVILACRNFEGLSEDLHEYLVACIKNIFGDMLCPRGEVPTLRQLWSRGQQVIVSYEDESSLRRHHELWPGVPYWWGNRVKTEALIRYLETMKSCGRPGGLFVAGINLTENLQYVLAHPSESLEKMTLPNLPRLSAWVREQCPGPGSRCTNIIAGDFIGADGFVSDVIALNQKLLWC
UniProt P42338: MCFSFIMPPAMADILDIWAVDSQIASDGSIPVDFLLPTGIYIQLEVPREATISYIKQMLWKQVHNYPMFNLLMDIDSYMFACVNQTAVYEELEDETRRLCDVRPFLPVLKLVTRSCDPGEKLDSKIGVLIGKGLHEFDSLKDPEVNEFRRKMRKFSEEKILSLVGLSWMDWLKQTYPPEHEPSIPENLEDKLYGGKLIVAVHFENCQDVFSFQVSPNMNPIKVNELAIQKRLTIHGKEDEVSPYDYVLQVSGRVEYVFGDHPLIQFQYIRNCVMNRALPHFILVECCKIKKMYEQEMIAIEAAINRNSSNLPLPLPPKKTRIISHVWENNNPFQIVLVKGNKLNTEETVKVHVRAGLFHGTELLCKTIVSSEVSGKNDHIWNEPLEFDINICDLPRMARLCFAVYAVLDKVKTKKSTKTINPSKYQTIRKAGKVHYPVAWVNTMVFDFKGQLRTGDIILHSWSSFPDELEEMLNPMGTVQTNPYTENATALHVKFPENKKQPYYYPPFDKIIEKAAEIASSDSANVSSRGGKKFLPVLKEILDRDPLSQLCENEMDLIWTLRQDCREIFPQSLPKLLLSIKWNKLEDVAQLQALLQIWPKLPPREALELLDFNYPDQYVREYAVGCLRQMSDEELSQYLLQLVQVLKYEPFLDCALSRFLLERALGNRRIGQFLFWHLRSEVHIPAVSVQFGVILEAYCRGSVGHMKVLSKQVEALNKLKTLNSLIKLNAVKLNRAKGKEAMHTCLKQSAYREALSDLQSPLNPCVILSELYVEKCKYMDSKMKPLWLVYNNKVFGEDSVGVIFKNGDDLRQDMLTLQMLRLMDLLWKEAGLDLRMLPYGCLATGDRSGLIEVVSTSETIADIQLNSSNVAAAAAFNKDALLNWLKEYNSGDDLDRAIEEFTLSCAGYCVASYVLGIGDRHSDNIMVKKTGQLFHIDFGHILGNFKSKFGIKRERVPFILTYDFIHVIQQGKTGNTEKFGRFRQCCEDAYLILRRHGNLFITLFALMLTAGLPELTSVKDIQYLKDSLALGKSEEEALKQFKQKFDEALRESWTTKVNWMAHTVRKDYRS

[2] = compound: CC1=C(SC2=C1C(=N[C@H](C3=NN=C(N32)C)CC(=O)N)C4=CC=C(C=C4)Cl)C
Procedure, shortened: as §1

[3] = compound: CC1=C2C(=CC=C1)N=C(N(C2=O)C3=CC=CC=C3C)CN4C=NC5=C(N=CN=C54)N
Procedure, shortened: as §1

[4] = compound: Cc1sc2c(c1C)C(c1ccc(Cl)cc1)=N[C@@H](CC(=O)OC(C)(C)C)c1nnc(C)n1-2
Procedure, shortened: as §1

[5] = compound: c1ccc([C@@H]2C[C@H]2NC2CCNCC2)cc1
Procedure, shortened: as §1

Measured: log2 fold change

PIP4K2B (UniProt P78356)
inactive: [1] -0.102 | [2] 0.018 | [3] -0.034 | [4] -0.038 | [5] -0.026

PHKB isoform 3 (UniProt Q93100)
inactive: [1] -0.13 | [2] -0.021 | [3] 0.068 | [4] 0.003 | [5] 0.005

PIP4P1 isoform 2 (UniProt Q86T03)
inactive: [1] -0.016 | [2] -0.106 | [3] -0.118 | [4] -0.002 | [5] 0.05

PHGDH (UniProt O43175)
inactive: [1] 0.004 | [2] 0.007 | [3] -0.012 | [4] -0.001 | [5] 0.012

PLCG2 (UniProt P16885)
inactive: [1] -0.034

PFKM (UniProt F8VTQ3)
inactive: [1] 0.01

PIGK (UniProt Q92643)
inactive: [1] 0.032 | [2] -0.006 | [3] 0.047 | [4] -0.037 | [5] -0.04

PIR (UniProt O00625)
inactive: [1] 0.016 | [2] 0.064 | [3] 0.027 | [4] -0.029 | [5] 0.002

PIGS (UniProt Q96S52)
inactive: [1] 0.06 | [2] 0.017 | [3] 0.028 | [4] 0.003 | [5] -0.007

PFN1 (UniProt P07737)
inactive: [1] 0.004 | [2] 0.031 | [3] 0.027 | [4] -0.019 | [5] -0.014

PFKFB2 (UniProt O60825)
inactive: [1] 0.044 | [2] 0.048 | [3] 0.028 | [4] -0.014 | [5] 0.007

PFDN2 (UniProt Q9UHV9)
inactive: [1] 0.01 | [2] 0.032 | [3] 0.017 | [4] -0.018 | [5] 0.003

PHACTR2 isoform 4 (UniProt O75167)
inactive: [1] 0.076 | [2] 0.002 | [3] 0.05 | [4] 0.018 | [5] 0.01

PKN2 (UniProt Q16513)
inactive: [1] -0.075 | [2] 0.103 | [3] 0.066 | [4] 0.029 | [5] 0.044

PITRM1 isoform 2 (UniProt Q5JRX3)
inactive: [1] 0.064 | [2] -0.08 | [3] 0.048 | [4] -0.083 | [5] 0

PJA2 (UniProt O43164)
inactive: [1] 0.005 | [2] -0.042 | [3] 0.021 | [4] 0.006 | [5] 0.024

PHF10 (UniProt Q8WUB8)
inactive: [1] -0.006 | [2] -0.13 | [3] 0.021 | [4] 0.162 | [5] 0.049

PGAM5 (UniProt Q96HS1)
inactive: [1] -0.014 | [2] 0 | [3] -0.095 | [4] 0.151 | [5] 0.002

2 successive entries from above, for reference:
PHGDH (UniProt O43175)
inactive: [1] 0.004 | [2] 0.007 | [3] -0.012 | [4] -0.001 | [5] 0.012

PLCG2 (UniProt P16885)
inactive: [1] -0.034

More entries:

PIEZO1 (UniProt Q92508)
inactive: [1] 0.04 | [2] 0.056 | [3] -0.028 | [4] -0.001 | [5] 0.018

PHOSPHO2 (UniProt Q8TCD6)
inactive: [1] -0.076 | [2] 0.093 | [3] -0.03 | [4] -0.111 | [5] -0.296

PFDN6 (UniProt O15212)
inactive: [1] 0.013 | [2] 0.046 | [3] 0.004 | [4] -0.074 | [5] -0.025

PIN4 isoform 2 (UniProt Q9Y237)
inactive: [1] -0.016 | [2] 0.035 | [3] 0.008 | [4] -0.01 | [5] 0.015

PIK3C3 (UniProt Q8NEB9)
inactive: [1] -0.038 | [2] 0.005 | [3] 0.009 | [4] 0.009 | [5] -0.01

PLCXD1 (UniProt Q9NUJ7)
inactive: [1] -0.061

PIK3CB (UniProt P42338)
inactive: [1] -0.068 | [2] 0.014 | [4] -0.01 | [5] 0.005
active: [3] 0.213

PLCG1 isoform 2 (UniProt P19174)
inactive: [1] -0.059 | [2] 0.038 | [3] 0.033 | [4] 0.063 | [5] -0.028

Reference: the supplement of paper PMC10849652
